PubChem BioAssay AID504764 | Drosophila RNAi Screening Center – 2011
In all, the deposit lists about 22,000 reagents; this is an unselected part of those with a known target gene and a result. In the full data, 403 (1.9%) got an active call. 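Unnormalised raw counts per well; ratio z-scores behind the hit calls and whether each hit raises or lowers signal are not deposited.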 Unmarked entries are inactive. A plus sign joins genes that one reagent is predicted to hit. Not stated in the record: the amount of reagent.

- Screen: 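Genes whose knock-down alters Notch-dependent transcription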 (primary screen)
- Cell system: Drosophila Kc167 cells
- Reagent: long dsRNA against Drosophila genes
- Time to read-out: about 5 days (4 days dsRNA, then 24 h after transfection)
- Conditions: transfection of constitutively active membrane-tethered Notch lacking the extracellular domain, read 24 h later
- Detection: 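Firefly luciferase from an E(spl)m3 reporter with active Notch, plus control-promoter and uninduced reporter wells for normalisation; unnormalised counts, duplicate wells a and b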
- Direction: induced reporter light, run 1, well a and induced reporter light, run 1, well b: higher = more light from the Notch target reporter with active Notch; control promoter light, run 1, well a and control promoter light, run 1, well b: higher = more light from the viral control promoter (cell number, transfection, viability); uninduced reporter light, run 1, well a: higher = more light from the Notch target reporter without active Notch
- Active means: 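Wells with low control signal or poorly matching duplicates excluded; duplicates averaged; per source plate, z beyond ±2 for induced/control log2 ratio or beyond ±1.8 for induced/uninduced marks a hit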
- Meaning of the calls: active = modifier hit (raised or lowered Notch signal); inactive = not a hit

target | dsRNA | induced reporter light, run 1, well a | induced reporter light, run 1, well b | control promoter light, run 1, well a | control promoter light, run 1, well b | uninduced reporter light, run 1, well a
RpS21 (GeneID 33487) | DRSC00833 | 91555 | 90685 | 1.37e5 | 1.29e5 | 5985
Cpr76Bb (GeneID 40121) | DRSC11061 | 1.28e5 | 1.35e5 | 1.01e5 | 1.03e5 | 13585
Lectin-galC1 (GeneID 35216) | DRSC03362 | 59390 | 35130 | 43365 | 67710 | 2770
CG14708 (GeneID 41383) | DRSC14930 | 1.64e5 | 1.56e5 | 1.73e5 | 1.53e5 | 7755
CG18628 (GeneID 39205) | DRSC10328 | 1.43e5 | 1.52e5 | 2.47e5 | 1.85e5 | 11170
KaiR1D (GeneID 42473) | DRSC15516 | 1.71e5 | 1.69e5 | 1.89e5 | 1.93e5 | 13000
CG9801 (GeneID 41044) | DRSC16568 | 1.30e5 | 1.19e5 | 99570 | 74580 | 10620
Yp3 (GeneID 32339) | DRSC20302 | 58175 | 65485 | 86625 | 99010 | 13070
S-Lap1 (GeneID 38986) | DRSC10627 | 99155 | 98280 | 67930 | 28865 | 9210
Cbp80 (GeneID 44409) | DRSC18450 | 73075 | 61030 | 52280 | 64025 | 3950
CG32971 (GeneID 318271) | DRSC01372 | 1.07e5 | 87440 | 87590 | 1.05e5 | 8200
mars (GeneID 36498) | DRSC06656 | 1.47e5 | 1.80e5 | 1.48e5 | 1.43e5 | 15170
loopin-1 (GeneID 36847) | DRSC06888 | 1.32e5 | 1.32e5 | 2.61e5 | 2.23e5 | 9000
tw (GeneID 31024) | DRSC18537 | 1.34e5 | 1.90e5 | 1.85e5 | 1.74e5 | 11720
CG17683 (GeneID 3355011) | DRSC21160 | 98705 | 86640 | 82155 | 1.16e5 | 9035
CG31560 (GeneID 40772) | DRSC12136 | 34910 | 63445 | 42600 | 39700 | 2320
CG18011 (GeneID 36068) | DRSC06697 | 1.53e5 | 1.52e5 | 1.50e5 | 1.51e5 | 15175
CG18011 (GeneID 36068) | DRSC06706 | 2.25e5 | 2.32e5 | 2.08e5 | 2.49e5 | 16355
Jon99Ci (GeneID 43545) | DRSC16860 | 1.24e5 | 1.30e5 | 1.85e5 | 1.63e5 | 10075
fog (GeneID 33148) | DRSC20646 | 1.27e5 (active) | 1.31e5 | 1.29e5 | 1.09e5 | 12845
mmd (GeneID 32561) | DRSC19672 | 13250 | 12965 | 15085 | 12640 | 6410
mmd (GeneID 32561) | DRSC19673 | 63180 | 81120 | 1.14e5 | 73575 | 12385
mmd (GeneID 32561) | DRSC20161 | 78440 | 69095 | 74315 | 66625 | 10160
mRpL12 (GeneID 44326) | DRSC10467 | 1.06e5 | 97920 | 61205 | 28070 | 8542

Part of the list above, showing only “induced reporter light, run 1, well a”:
CG9801 (GeneID 41044) [DRSC16568]: 1.30e5
Yp3 (GeneID 32339) [DRSC20302]: 58175
S-Lap1 (GeneID 38986) [DRSC10627]: 99155

Further reagents follow.
target | dsRNA | induced reporter light, run 1, well a | induced reporter light, run 1, well b | control promoter light, run 1, well a | control promoter light, run 1, well b | uninduced reporter light, run 1, well a
CG13306 (GeneID 50301) | DRSC09976 | 2.34e5 | 2.31e5 | 2.67e5 | 2.48e5 | 11055
RpL5 (GeneID 3355124) | DRSC03801 | 4070 | 3465 | 5240 | 3880 | 150
CG10543 (GeneID 37379) | DRSC04081 | 6445 | 5670 | 6792 | 6405 | 1140
tkv + CR14033 + tRNA:Asp-GTC-2-1 + 1 more | DRSC00861 | 1.12e5 | 98180 | 1.87e5 | 1.56e5 | 8075
CG7907 (GeneID 42539) | DRSC16339 | 2.18e5 | 1.58e5 | 2.06e5 | 2.34e5 | 11935
Cpr49Ad (GeneID 36349) | DRSC07284 | 91980 | 85020 | 1.25e5 | 1.24e5 | 10000
firl (GeneID 34627) | DRSC02428 | 1.37e5 | 1.68e5 | 1.61e5 | 1.87e5 | 13410
CG14739 (GeneID 41467) | DRSC14959 | 55310 | 70580 | 52460 | 54450 | 2670
CG7798 (GeneID 36798) | DRSC07047 | 1.27e5 | 1.18e5 | 1.12e5 | 1.00e5 | 9342
CG4393 (GeneID 42764) | DRSC15573 | 1.73e5 | 1.83e5 | 2.26e5 | 2.11e5 | 16005
CG11786 (GeneID 42998) | DRSC14389 | 1.55e5 | 1.28e5 | 1.85e5 | 1.67e5 | 11365
CG12438 (GeneID 34202) | DRSC02167 | 93165 | 1.49e5 | 95275 | 1.32e5 | 20630
ItgaPS5 (GeneID 37732) | DRSC04501 | 1.34e5 | 1.44e5 | 1.16e5 | 1.44e5 | 10070
shd (GeneID 39592) | DRSC11129 | 1.63e5 | 1.39e5 | 2.04e5 | 1.98e5 | 9435
CG18304 (GeneID 33969) | DRSC02664 | 1.39e5 (active) | 1.31e5 | 2.29e5 | 2.04e5 | 13065
Rrp4 (GeneID 37731) | DRSC04434 | 1.77e5 | 1.59e5 | 1.46e5 | 1.72e5 | 12060
Bap60 (GeneID 32268) | DRSC19337 | 45765 | 42115 | 48005 | 35610 | 4410
Mettl2 (GeneID 38197) | DRSC08398 | 62685 | 69360 | 98270 | 97685 | 5325
Ugt301D1 (GeneID 35105) | DRSC02021 | 1.71e5 | 1.70e5 | 1.91e5 | 1.66e5 | 16770
CG10866 (GeneID 38461) | DRSC08171 | 1.69e5 | 1.38e5 | 1.66e5 | 1.56e5 | 7205
CG5641 (GeneID 41529) | DRSC15852 | 1.16e5 | 1.20e5 | 1.01e5 | 71620 | 8275
Rab1 (GeneID 42524) | DRSC16808 | 60280 | 48905 | 85070 | 78725 | 3645
CG31954 (GeneID 33572) | DRSC00580 | 2.37e5 | 2.07e5 | 2.40e5 | 2.61e5 | 22060
wts (GeneID 43651) | DRSC17096 | 3925 | 3910 | 8805 | 8300 | 2750
Mat1 (GeneID 36130) | DRSC07465 | 1.54e5 | 1.77e5 | 2.17e5 | 2.72e5 | 15532
Eglp4 (GeneID 37739) | DRSC04438 | 1.86e5 | 1.46e5 | 1.61e5 | 1.59e5 | 11590
